# Measurements reported in PubChem BioAssay AID1053208 (Peter MacCallum Cancer Centre, 2014).
# Test: 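Genes whose silencing cuts survival of bone tumour cells only with doxorubicin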 (primary screen)
# Cells: mouse osteosarcoma cells, early-passage culture from an engineered mouse model of fibroblastic bone tumour
# Knock-down reagent: siRNA pool against mouse genes, 40 nM
# Timing: about 120 h (48 h before drug, then 72 h with drug)
# Treatment: doxorubicin 100 nM for 72 h, roughly 30-40% inhibitory dose
# Detection: 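Luminescent ATP signal taken as viability with or without 100 nM doxorubicin for 72 h; mean of two wells set against non-targeting siRNA and turned into robust z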
# Reading the numbers: viability z-score with doxorubicin and doxorubicin viability vs non-targeting: higher = more viable cells under doxorubicin; viability z-score without drug: higher = more viable cells with knock-down alone; z-score of drug to no-drug ratio: higher = less drug sensitisation by knock-down
# Call rule: 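a pool counts as active when its viability z-score with doxorubicin is -2 or below and its z-score without drug lies between -2 and 2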
# In all, the deposit lists about 17,000 reagents; this is an unselected part. 788 of all reagents (4.7%) count as active. 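Calls rest on z-score classes alone; an extra cut-off of viability at most 70% of control was not applied to them.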 Unmarked entries are inactive. The numbers tell different reagents against one gene apart.
Gene,reagent no.,combined z-score class,viability z-score with doxorubicin,viability z-score without drug,z-score of drug to no-drug ratio,doxorubicin viability vs non-targeting
Rln3,1,no change with or without drug,-0.45,0.34,-0.56,0.9
Sumo2,1,no change with or without drug,0,-0.67,0.56,0.94
Ostm1,1,no change with or without drug,-1.12,-0.17,-1.01,0.84
Pdss1,1,no change with or without drug,1.57,0.51,1.35,1.08
4931422A03Rik,1,high cell count without drug only,0.22,3.37,-1.69,0.96
Or2l13b,1,no change with or without drug,-0.22,-0.51,0.22,0.92
Mrpl16,1,no change with or without drug,0.34,0.34,0.22,0.97
Iqcj,1,no change with or without drug,-1.57,-0.17,-1.46,0.8
Sf3b2,1,low cell count with and without drug,-5.62,-4.55,-3.71,0.44
Pbxip1,1,no change with or without drug,0.22,0.51,0,0.96
Fam89b,1,no change with or without drug,0.9,-0.17,1.24,1.02
Slc37a1,1,no change with or without drug,-1.12,0.17,-1.12,0.84
Adam30,1,no change with or without drug,0.9,0.84,0.45,1.02
Tab1,1,no change with or without drug,0.22,-0.84,1.01,0.96
Gcfc2,1,no change with or without drug,-0.11,-0.51,0.34,0.93
Hspb2,1,high cell count with doxorubicin only,2.47,-0.84,3.48,1.16
Pals2,1,no change with or without drug,-0.45,-1.18,0.45,0.9
Pals2,2,no change with or without drug,1.57,1.01,1.01,1.08
Mrgpra4,1,no change with or without drug,-1.12,-1.18,-0.34,0.84
Or8b53,1,no change with or without drug,-1.57,-1.18,-0.79,0.8
Ddx5,1,no change with or without drug,0,0.51,-0.22,0.94
Or6c215,1,no change with or without drug,-0.45,-0.84,0.22,0.9
Camk2d,1,no change with or without drug,0.34,-0.51,0.79,0.97
Irak3,1,no change with or without drug,0.22,-0.51,0.67,0.96
Or4c118,1,high cell count with and without drug,2.25,2.53,0.67,1.14
Cenpm,1,no change with or without drug,0.34,0.51,0.11,0.97
Naalad2,1,no change with or without drug,0.45,0.51,0.22,0.98
Fkbp14,1,no change with or without drug,-0.22,0.34,-0.34,0.92
Fnbp1l,1,no change with or without drug,0.22,-0.84,1.01,0.96
Rsph9,1,no change with or without drug,-0.45,0.34,-0.56,0.9
Phf6,1,no change with or without drug,0.9,1.18,0.22,1.02
Rims2,1,no change with or without drug,-1.12,-1.18,-0.34,0.84
Plcb2,1,high cell count without drug only,1.35,2.53,-0.22,1.06
Ebf1,1,no change with or without drug,-0.11,0,0,0.93

Only “doxorubicin viability vs non-targeting” (5 entries from above):
4931422A03Rik	0.96
Or2l13b	0.92
Mrpl16	0.97
Iqcj	0.8
Sf3b2	0.44
